# Some of the results follow.
# B1: Thrombomodulin Lectin (Mus musculus) (protein)
# chain: LSALAKLQPTGSQCVEHECFALFQGPATFLDASQACQRLQGHLMTVRSSVAADVISLLLSQSSMDLGPWIGLQLPQGCDDPVHLGPLRGFQWVTGDNHTSYSRWARPNDQTAPLCGPLCVTVSTATEAAPGEPAWEEKPCETETQGFLCEFYFTASCRVDPIPVREDTKEEEGAGEPPVSPTPGSPTGPPSARPVLDEPRVPITQNPCPPLKECPPCAAPDLEGGPSVFIFPPKIKDVLMISLSPMVTCVVVDVSEDDPDVQISWFVNNVEVHTAQTQTHREDYNSTLRVVSALPIQHQDWMSGKAFACAVNNRALPSPIEKTISKPRGPVRAPQVYVLPPPAEEMTKKEFSLTCMITGFLPAEIAVDWTSNGRTEQNYKNTATVLDSDGSYFMYSKLRVQKSTWERGSLFACSVVHEGLHNHLTTKTISRSLGK
# Columns and labels:
# Assay in all cases: glycan array binding signal (z-score within array); higher = stronger binding
# Conditions in all cases: glycan notation: IUPAC condensed, linker removed
# [1] = target: Fuc(a1-2)Gal
# Outline: (§1)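 The binding signal is a Z-score computed within each array and averaged over linkers. Arrays of the same protein sequence at different concentrations or buffers were also averaged together. Data originate from 3228 arrays in the Consortium for Functional Glycomics database, kept only where the protein sequence was available.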
# [2] = target: Fuc(a1-2)Gal(b1-3)GalNAc
# Outline: as §1
# [3] = target: Fuc(a1-2)Gal(b1-3)GalNAc(a1-3)[Fuc(a1-2)]Gal(b1-4)Glc
# Outline: as §1
# [4] = target: Fuc(a1-2)Gal(b1-3)GalNAc(a1-3)[Fuc(a1-2)]Gal(b1-4)GlcNAc
# Outline: as §1
# [5] = target: Fuc(a1-2)Gal(b1-3)GalNAc(b1-3)Gal
# Outline: as §1
# [6] = target: Fuc(a1-2)Gal(b1-3)GalNAc(b1-3)Gal(a1-4)Gal(b1-4)Glc
# Outline: as §1
# [7] = target: Fuc(a1-2)Gal(b1-3)GalNAc(b1-4)[Neu5Ac(a2-3)]Gal(b1-4)Glc
# Outline: as §1
# [8] = target: Fuc(a1-2)Gal(b1-3)GlcNAc
# Outline: as §1
# [9] = target: Fuc(a1-2)Gal(b1-3)GlcNAc(b1-2)Man(a1-3)[Fuc(a1-2)Gal(b1-3)GlcNAc(b1-2)Man(a1-6)]Man(b1-4)GlcNAc(b1-4)GlcNAc
# Outline: as §1
# [10] = target: Fuc(a1-2)Gal(b1-3)GlcNAc(b1-2)Man(a1-3)[Fuc(a1-2)Gal(b1-3)GlcNAc(b1-2)Man(a1-6)]Man(b1-4)GlcNAc(b1-4)[Fuc(a1-6)]GlcNAc
# Outline: as §1
# [11] = target: Fuc(a1-2)Gal(b1-3)GlcNAc(b1-3)Gal(b1-4)Glc
# Outline: as §1
# [12] = target: Fuc(a1-2)Gal(b1-3)GlcNAc(b1-3)GalNAc
# Outline: as §1
# [13] = target: Fuc(a1-2)Gal(b1-3)GlcNAc(b1-3)[Fuc(a1-2)Gal(b1-3)GlcNAc(b1-6)]GalNAc
# Outline: as §1
# [14] = target: Fuc(a1-2)Gal(b1-3)GlcNAc(b1-3)[Gal(b1-4)GlcNAc(b1-6)]Gal(b1-4)Glc
# Outline: as §1
# [15] = target: Fuc(a1-2)Gal(b1-3)GlcNAc(b1-3)[Neu5Ac(a2-6)Gal(b1-4)GlcNAc(b1-6)]Gal(b1-4)Glc
# Outline: as §1
# [16] = target: Fuc(a1-2)Gal(b1-3)GlcNAc6S
# Outline: as §1
# [17] = target: Fuc(a1-2)Gal(b1-3)[Fuc(a1-4)]GlcNAc
# Outline: as §1
# [18] = target: Fuc(a1-2)Gal(b1-3)[Fuc(a1-4)]GlcNAc(b1-2)Man(a1-3)[Fuc(a1-2)Gal(b1-3)[Fuc(a1-4)]GlcNAc(b1-2)Man(a1-3)]Man(b1-4)GlcNAc(b1-4)GlcNAc
# Outline: as §1
# [19] = target: Fuc(a1-2)Gal(b1-3)[Fuc(a1-4)]GlcNAc(b1-2)Man(a1-3)[Fuc(a1-2)Gal(b1-3)[Fuc(a1-4)]GlcNAc(b1-2)Man(a1-6)]Man(b1-4)GlcNAc(b1-4)[Fuc(a1-6)]GlcNAc(b1-4)[Fuc(a1-6)]GlcNAc
# Outline: as §1
# [20] = target: Fuc(a1-2)Gal(b1-3)[Fuc(a1-4)]GlcNAc(b1-3)[Fuc(a1-3)[Gal(b1-4)]GlcNAc(b1-6)]Gal(b1-4)Glc
# Outline: as §1
# [21] = target: Fuc(a1-2)Gal(b1-3)[Fuc(a1-4)]GlcNAc(b1-3)[Gal(b1-4)GlcNAc(b1-6)]Gal(b1-4)Glc
# Outline: as §1
# [22] = target: Fuc(a1-2)Gal(b1-4)Glc
# Outline: as §1
# [23] = target: Fuc(a1-2)Gal(b1-4)Glc6S
# Outline: as §1
# [24] = target: Fuc(a1-2)Gal(b1-4)GlcNAc
# Outline: as §1
# [25] = target: Fuc(a1-2)Gal(b1-4)GlcNAc(b1-2)Man
# Outline: as §1
# [26] = target: Fuc(a1-2)Gal(b1-4)GlcNAc(b1-2)Man(a1-3)[Fuc(a1-2)Gal(b1-4)GlcNAc(b1-2)Man(a1-6)]Man(b1-4)GlcNAc(b1-4)GlcNAc
# Outline: as §1
# [27] = target: Fuc(a1-2)Gal(b1-4)GlcNAc(b1-2)Man(a1-3)[Fuc(a1-2)Gal(b1-4)GlcNAc(b1-2)Man(a1-6)]Man(b1-4)GlcNAc(b1-4)[Fuc(a1-6)]GlcNAc
# Outline: as §1
# [28] = target: Fuc(a1-2)Gal(b1-4)GlcNAc(b1-2)[Fuc(a1-2)Gal(b1-4)GlcNAc(b1-4)]Man(a1-3)[Fuc(a1-2)Gal(b1-4)GlcNAc(b1-2)Man(a1-6)]Man(b1-4)GlcNAc(b1-4)GlcNAc
# Outline: as §1
# [29] = target: Fuc(a1-2)Gal(b1-4)GlcNAc(b1-3)Gal(b1-4)GlcNAc
# Outline: as §1
# [30] = target: Fuc(a1-2)Gal(b1-4)GlcNAc(b1-3)Gal(b1-4)GlcNAc(b1-2)Man(a1-3)[Fuc(a1-2)Gal(b1-4)GlcNAc(b1-3)Gal(b1-4)GlcNAc(b1-2)Man(a1-6)]Man(b1-4)GlcNAc(b1-4)GlcNAc
# Outline: as §1
# [31] = target: Fuc(a1-2)Gal(b1-4)GlcNAc(b1-3)Gal(b1-4)GlcNAc(b1-3)Gal(b1-4)GlcNAc
# Outline: as §1
# [32] = target: Fuc(a1-2)Gal(b1-4)GlcNAc(b1-3)GalNAc
# Outline: as §1
# [33] = target: Fuc(a1-2)Gal(b1-4)GlcNAc(b1-3)[Fuc(a1-2)Gal(b1-4)GlcNAc(b1-6)]GalNAc
# Outline: as §1
# [34] = target: Fuc(a1-2)Gal(b1-4)GlcNAc(b1-3)[Fuc(a1-3)[Gal(b1-4)]GlcNAc(b1-6)]Gal(b1-4)Glc
# Outline: as §1
# [35] = target: Fuc(a1-2)Gal(b1-4)GlcNAc(b1-6)GalNAc
# Outline: as §1
# [36] = target: Fuc(a1-2)Gal(b1-4)GlcNAc6S
# Outline: as §1
# [37] = target: Fuc(a1-2)Gal(b1-4)[Fuc(a1-3)]GlcNAc
# Outline: as §1
# [38] = target: Fuc(a1-2)Gal(b1-4)[Fuc(a1-3)]GlcNAc(b1-2)Man(a1-3)[Fuc(a1-2)Gal(b1-4)[Fuc(a1-3)]GlcNAc(b1-2)Man(a1-6)]Man(b1-4)GlcNAc(b1-4)[Fuc(a1-6)]GlcNAc
# Outline: as §1
# [39] = target: Fuc(a1-2)Gal(b1-4)[Fuc(a1-3)]GlcNAc(b1-2)[Fuc(a1-2)Gal(b1-4)[Fuc(a1-3)]GlcNAc(b1-4)]Man(a1-3)[Fuc(a1-2)Gal(b1-4)[Fuc(a1-3)]GlcNAc(b1-2)Man(a1-6)]Man(b1-4)GlcNAc(b1-4)GlcNAc
# Outline: as §1
# [40] = target: Fuc(a1-2)Gal(b1-4)[Fuc(a1-3)]GlcNAc(b1-3)Gal(b1-4)[Fuc(a1-3)]GlcNAc
# Outline: as §1
# [41] = target: Fuc(a1-2)Gal(b1-4)[Fuc(a1-3)]GlcNAc(b1-3)Gal(b1-4)[Fuc(a1-3)]GlcNAc(b1-3)Gal(b1-4)[Fuc(a1-3)]GlcNAc
# Outline: as §1
# [42] = target: Fuc(a1-2)Gal(b1-4)[Fuc(a1-3)]GlcNAc(b1-3)GalNAc
# Outline: as §1
# [43] = target: Fuc(a1-2)Gal(b1-4)[Fuc(a1-3)]GlcNAc(b1-3)[Neu5Ac(a2-6)Gal(b1-4)GlcNAc(b1-6)]Gal(b1-4)Glc
# Outline: as §1
# [44] = target: Fuc(a1-2)Gal3S(b1-4)GlcNAc
# Outline: as §1
# [45] = target: Fuc(a1-2)Gal6S(b1-3)GlcNAc
# Outline: as §1
binder,measurement,setting,value
B1,glycan array binding signal (z-score),[1],-0.471
same,glycan array binding signal (z-score),[2],-0.016
same,glycan array binding signal (z-score),[3],-1.7
same,glycan array binding signal (z-score),[4],0.628
same,glycan array binding signal (z-score),[5],-0.06
same,glycan array binding signal (z-score),[6],-1.04
same,glycan array binding signal (z-score),[7],-0.189
same,glycan array binding signal (z-score),[8],0.159
same,glycan array binding signal (z-score),[9],0.062
same,glycan array binding signal (z-score),[10],-0.107
same,glycan array binding signal (z-score),[11],-0.113
same,glycan array binding signal (z-score),[12],0.4
same,glycan array binding signal (z-score),[13],0.65
same,glycan array binding signal (z-score),[14],-0.227
same,glycan array binding signal (z-score),[15],0.887
same,glycan array binding signal (z-score),[16],0.171
same,glycan array binding signal (z-score),[17],-1.07
same,glycan array binding signal (z-score),[18],0.196
same,glycan array binding signal (z-score),[19],-1.04
same,glycan array binding signal (z-score),[20],-0.635
same,glycan array binding signal (z-score),[21],0.776
same,glycan array binding signal (z-score),[22],-0.298
same,glycan array binding signal (z-score),[23],-0.846
same,glycan array binding signal (z-score),[24],-0.545
same,glycan array binding signal (z-score),[25],-0.657
same,glycan array binding signal (z-score),[26],0.621
same,glycan array binding signal (z-score),[27],0.32
same,glycan array binding signal (z-score),[28],-0.58
same,glycan array binding signal (z-score),[29],-0.707
same,glycan array binding signal (z-score),[30],0.733
same,glycan array binding signal (z-score),[31],-0.139
same,glycan array binding signal (z-score),[32],0.078
same,glycan array binding signal (z-score),[33],0.697
same,glycan array binding signal (z-score),[34],0.106
same,glycan array binding signal (z-score),[35],2.73
same,glycan array binding signal (z-score),[36],-1.08
same,glycan array binding signal (z-score),[37],-0.553
same,glycan array binding signal (z-score),[38],-0.576
same,glycan array binding signal (z-score),[39],0.775
same,glycan array binding signal (z-score),[40],0.215
same,glycan array binding signal (z-score),[41],1.04
same,glycan array binding signal (z-score),[42],0.324
same,glycan array binding signal (z-score),[43],-0.573
same,glycan array binding signal (z-score),[44],-1.15
same,glycan array binding signal (z-score),[45],0.422

# 3 successive records out of the list so far, quoted:
binder,measurement,setting,value
B1,glycan array binding signal (z-score),[2],-0.016
same,glycan array binding signal (z-score),[3],-1.7
same,glycan array binding signal (z-score),[4],0.628

# Reference: the supplement of paper PMC8728848
